Test results: PubChem BioAssay AID504834 (National Center for Advancing Translational Sciences (NCATS), 2011)
The campaign covered roughly 320,000 compounds. About 22,000 (6.9%) were called active. Inconclusive results, whose numbers are uncertain, are shown with a selection of clear calls. Calls come from the whole dose curve; as a rule, active = well fitted inhibition curve with a large enough effect; inconclusive = small, poorly fitted or top-dose-only effect, or another doubt; inactive = no such curve, though single readings can be large or run the other way. Where the call is inconclusive, the potency comes from a doubtful curve fit.

Experiment: Primary qHTS for delayed death inhibitors of the malarial parasite plastid, 96 hour incubation
Details: P. falciparum luciferase reporter growth; series mostly up to 28.7 µM; activity change, negative = inhibition: at the top concentration
In short: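 Infected RBCs, 2% Hct / 0.05% parasitemia final; luciferase-reporter P. falciparum; cpd 96 h, 37 C, 5% CO2; luciferase detection reagent; luminescence.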
% is set by controls: 0 for no effect and ±100 for the full control effect; potency is the fitted concentration of half-maximal effect.

Row | SMILES | Potency | activity change, negative = inhibition
1 | COc1cc(Cn2ccnc2)c(OC)cc1Cn1ccnc1 | inconclusive: 11.7 µM [inhibitor, single point] | 
2 | COc1ccc(CC(=O)NCC2CCCN(Cc3ccc(SC)cc3)C2)cc1 (stereo not drawn) |  | inactive: -16%
3 | O=C(CCNC(=O)c1ccc([N+](=O)[O-])cc1)Nc1ccccc1N1CCCC1 | inconclusive: 18.5 µM [inhibitor, single point] | 
4 | CCn1c(SCc2nc3ccccc3c(=O)[nH]2)nnc1C(C)NC(=O)c1ccccc1F (stereo not drawn) |  | inactive: 11.9%
5 | O=C(c1ccc(COc2ccccc2Cl)o1)N1CCN(c2ccccc2)CC1 | inconclusive: 18.5 µM [inhibitor, single point] | 
6 | CNC(=O)c1ccc(NC(=O)CN2c3cccc4cccc(c34)S2(=O)=O)cc1 | inconclusive: 10.4 µM [inhibitor, single point] | 
7 | C/C(=N\Nc1cc(N2CCOCC2)ncn1)c1ccc(O)cc1 | inconclusive: 13.1 µM [inhibitor, single point] | 
8 | O=C(N1CCOCC1)N1c2ccccc2Sc2ccccc21 | inconclusive: 0.0029 µM [inhibitor, full curve, poor fit] | 
9 | COc1cccc(CNC(=O)C(=O)N2CCC3(CC2)OCCN3S(=O)(=O)c2ccc(C)cc2)c1 | inconclusive: 0.738 µM [inhibitor, full curve] | 
10 | O=C(NCCc1csc(-c2cccnc2)n1)c1cccc(Cl)c1 |  | inactive: -8.89%
11 | COc1cc(C)c(S(=O)(=O)n2ccc(C)n2)cc1C | active: 14.7 µM | 
12 | O=[N+]([O-])c1cc(Cl)c(O)c(-[n+]2c(-c3ccccc3)cc(-c3ccccc3)cc2-c2ccccc2)c1 | inconclusive: 18.5 µM [inhibitor, single point] | 
13 | O=S(=O)(Nc1ccc(O)cc1)c1cccc2cccnc12 |  | inactive: 6.62%
14 | Brc1ccc2c(c1)OCCOCCOCCOCCOCCO2 | active: 10.4 µM | 
15 | O=C(NC1CCCCC1)[C@H](CSCc1ccccc1)N1Cc2ccccc2C1=O | inconclusive: 18.5 µM [inhibitor, single point] | 
16 | O=C1NC(=O)c2cc([N+](=O)[O-])cc3cccc1c23 |  | inactive: 17.3%
17 | Cc1ccc2nsnc2c1S(=O)(=O)N1CCN(C(=O)C2CCCO2)CC1 (stereo not drawn) | inconclusive: 5.86 µM [inhibitor, partial curve] | 
18 | CC(C)(C)NC(=O)C(c1cccs1)N(C(=O)c1csnn1)c1ccccc1F (stereo not drawn) | inconclusive: 18.5 µM [inhibitor, single point] | 
19 | CCCNC(=O)c1cc(C)no1 | inconclusive: 18.5 µM [inhibitor, single point] | 
20 | COc1ccc(OC)c2[nH]c(=O)c(CCNC(=O)C(=O)c3c[nH]c4ccccc34)cc12 | inconclusive: 2.08 µM [inhibitor, full curve, poor fit] | 
21 | COc1ccc(OCC(=O)O/N=C(\N)c2ccc(OC)c(OC)c2)cc1 | inconclusive: 18.5 µM [inhibitor, single point] | 
22 | Cc1ccccc1NC(=O)Cc1c(O)c2ccccc2[nH]c1=O |  | inactive: 31.6%
23 | COc1cccc(C(C(=O)NC2CCCC2)N(CCC(C)C)C(=O)CCC(=O)Nc2cc(C)on2)c1 (stereo not drawn) |  | inactive: 21.8%
24 | COc1ccc(COc2cc(-c3cccc(OC)c3)nc3ccc(NC(=O)c4ccc(N(C)C)cc4)cc23)cc1 | active: 2.94 µM | 
25 | COc1cc(/C=N/NC(=O)c2ccccc2Cl)ccc1Oc1ccc([N+](=O)[O-])cn1 | inconclusive: 18.5 µM [inhibitor, single point] | 

Row | SMILES | Potency | activity change, negative = inhibition
26 | Cc1ccc(NC(=O)CN2C(=O)N/C(=C/c3ccccc3OCc3cccc(C(=O)O)c3)C2=O)cc1 |  | inactive: -1.08%
27 | CC1CCN(CC#CCOc2ccc(Cl)cc2)CC1 | inconclusive: 18.5 µM [inhibitor, single point] | 
28 | CC(C)Cc1cc(C(=O)NCc2cccs2)no1 | inconclusive: 11.7 µM [inhibitor, partial curve, poor fit] | 
29 | O=C(/C=C/c1ccc2c(c1)OCO2)NCc1ccc(F)cc1 |  | inactive: 255%
30 | CNC(=S)NC12CC3CC(CC(C3)C1)C2 | inconclusive: 11.7 µM [inhibitor, single point] | 
31 | O=C(O)/C(=C\c1ccc(Cl)cc1)c1ccc(F)cc1 |  | inactive: 6.11%
32 | Cn1cc(CCC(=O)NCc2ccc3c(c2)OCO3)c2ccccc21 | inconclusive: 5.22 µM [inhibitor, partial curve] | 
33 | CN1CCN(S(=O)(=O)c2ccc(N(C)Cc3cccc(F)c3)nc2)CC1 |  | inactive: 16.6%
34 | c1ccc2sc(-c3ccncc3)nc2c1 |  | inactive: 117%
35 | CCOc1cc(C(c2c(C)[nH][nH]c2=O)c2c(C)[nH][nH]c2=O)ccc1OC(=O)c1cccc([N+](=O)[O-])c1 | inconclusive: 7.38 µM [inhibitor, single point] | 
36 | Cc1ccc(NC(=O)NNC(=O)COc2ccc3ccccc3c2)cc1 | inconclusive: 18.5 µM [inhibitor, single point] | 
37 | CC(=O)c1cc(F)c(N2CCN(C(=O)COc3ccccc3F)CC2)cc1C |  | inactive: 467%
38 | Cc1ccc(-n2ccn(CC(=O)NCCc3ccccc3)c(=O)c2=O)cc1C |  | inactive: 3.85%
39 | COc1ccc(C(=O)Cc2cc(OC)c(OC)cc2[N+](=O)[O-])c(OC)c1 | inconclusive: 1.17 µM [inhibitor, full curve, poor fit] | 
40 | COc1cc(NC(C(=O)Nc2cccc(C(C)=O)c2)c2ccccc2)cc(OC)c1OC (stereo not drawn) | inconclusive: 4.15 µM [inhibitor, partial curve, poor fit] | 
41 | CC(C)(C)n1nnnc1C(c1cccnc1)N1CCN(C2CCCCC2)CC1 (stereo not drawn) |  | inactive: -2.31%
42 | CN1c2ccsc2/C(=N/Nc2ccccc2)CS1(=O)=O | inconclusive: 18.5 µM [inhibitor, single point] | 
43 | CC(=O)c1ccc(N2C(=O)[C@@H]3C(CCC(N)=O)NC4(C(=O)Nc5c4ccc(Cl)c5C)[C@@H]3C2=O)cc1 (stereo partly drawn) | inconclusive: 10.4 µM [inhibitor, single point] | 
44 | O=C(Cc1ccc(F)cc1)Nc1nc(-c2ccc(F)c(F)c2)cs1 | inconclusive: 18.5 µM [inhibitor, single point] | 
45 | N#Cc1ccc(Nc2nn3c(=O)c4ccccc4nc3s2)cc1 |  | inactive: 3.4%
46 | COc1ccc(NC(=O)C/C(C)=N/NC(=O)c2ccccn2)c(OC)c1 | active: 13.1 µM | 
47 | CCOC(=O)c1c(-n2cccc2)sc2c1CCCC2=O |  | inactive: 1.97%
48 | CC(C)c1nc(CNC(=O)C2CCC(=O)N(CCc3ccc(Cl)cc3)C2)no1 (stereo not drawn) | inconclusive: 18.5 µM [inhibitor, single point] | 
49 | Cc1cccc(C)c1OCc1cc(C(=O)N2CCC[C@H]2C(N)=O)no1 |  | inactive: -0.281%
50 | Cc1cccc(NC(=O)Nc2cnccn2)c1C | inconclusive: 9.28 µM [inhibitor, single point] | 

Row | SMILES | Potency | activity change, negative = inhibition
51 | COc1ccc(CNC(=O)c2noc3c2CCCC3)cc1 |  | inactive: 3.22%
52 | COc1ccc2c(Cl)c(C(=O)N/N=C/c3c(C)[nH]c4ccccc34)sc2c1 | inconclusive: 18.5 µM [inhibitor, single point] | 
53 | CCN1C(=O)CC(c2ccc(OC(C)C)cc2)C1=O (stereo not drawn) |  | inactive: 33.4%
54 | CC1=Nc2ccccc2N=C(NC(=O)CSC(=S)N2CCCCC2)C1c1ccccc1 (stereo not drawn) | inconclusive: 14.7 µM [inhibitor, partial curve, poor fit] | 
55 | CN(Cc1ccccc1)C(=O)c1cc(=O)[nH]c2ccccc12 | inconclusive: 16.5 µM [inhibitor, single point] | 
56 | CN(C)N1C(N)=C(C#N)C(c2ccc(F)cc2)C2=C1CCCC2=O (stereo not drawn) | inconclusive: 10.4 µM [inhibitor, single point] | 
57 | COc1ccccc1OCC(=O)NCC1CCCN(Cc2cnn(C)c2C)C1 (stereo not drawn) |  | inactive: -20.6%
58 | Cc1ccc(C2C(C#N)=C(N)N(c3cccnc3)C3=C2C(=O)CCC3)c(C)c1 (stereo not drawn) |  | inactive: -27.4%
59 | COc1ccc(NC(C)=O)cc1S(=O)(=O)N1CCn2cccc2C1C (stereo not drawn) |  | inactive: -0.705%
60 | CCc1ccccc1NC(=O)CNCC(=O)Nc1ccccc1CC |  | inactive: -1.8%
61 | COC(=O)C1C(c2ccc(Cl)cc2)NC(c2ccc(Cl)cc2)C(C(=O)OC)S1(=O)=O (stereo not drawn) | inconclusive: 13.1 µM [inhibitor, single point] | 
62 | COc1cc(C(=O)NCc2nnc(SCC(=O)c3ccc(Cl)cc3)o2)cc(OC)c1OC |  | inactive: 8.44%
63 | O=C(N/N=C/c1ccc(Cl)cc1Cl)c1ccc2nc[nH]c2c1 | inconclusive: 14.7 µM [inhibitor, partial curve, poor fit] | 
64 | CCOc1ccccc1NC(=O)C1Cc2ccccc2CN1S(C)(=O)=O (stereo not drawn) | active: 11.7 µM | 
65 | CCN(CC)c1ccc(/C=N/N2CCN(Cc3ccccc3)CC2)cc1 |  | inactive: -6.29%
66 | O=C(c1cccc(N2CCCC2=O)c1)N1CCN(c2ccc(F)cc2)CC1 | inconclusive: 11.7 µM [inhibitor, single point] | 
67 | CCNC(=S)NNC(=O)c1cc(-c2ccccc2C)nc2ccccc12 | inconclusive: 0.185 µM [inhibitor, full curve, poor fit] | 
68 | COc1ccc(S(=O)(=O)NCc2ccccn2)cc1 | inconclusive: 3.7 µM [inhibitor, partial curve, poor fit] | 
69 | COc1cccc(CNC(=O)C2CCN(S(=O)(=O)c3ccc4c(c3)CCC(=O)N4)CC2)c1 | inconclusive: 5.86 µM [inhibitor, partial curve, poor fit] | 
70 | O=C(NC1CCCC1)C(c1ccc(F)cc1)N(C(=O)Cc1cccs1)c1ccc2c(c1)OCCO2 (stereo not drawn) |  | inactive: 11.1%
71 | Cc1ccc2[nH]c3c(=O)n(N)c(=O)[nH]c3c2c1 |  | inactive: 20.5%
72 | COc1ccccc1CNC(=O)C1CCN(S(=O)(=O)c2ccc3c(c2)OCCCO3)CC1 | inconclusive: 18.5 µM [inhibitor, single point] | 
73 | COc1cc(C(=O)N2CCC(NC(=O)C(Cc3ccc(C)cc3)NC(C)=O)CC2)cc(OC)c1OC (stereo not drawn) | active: 5.86 µM | 

Six of these compounds, set out differently:

| Row | SMILES | Potency | activity change, negative = inhibition |
| --- | --- | --- | --- |
| 6 | CNC(=O)c1ccc(NC(=O)CN2c3cccc4cccc(c34)S2(=O)=O)cc1 | inconclusive: 10.4 µM [inhibitor, single point] |  |
| 19 | CCCNC(=O)c1cc(C)no1 | inconclusive: 18.5 µM [inhibitor, single point] |  |
| 22 | Cc1ccccc1NC(=O)Cc1c(O)c2ccccc2[nH]c1=O |  | inactive: 31.6% |
| 31 | O=C(O)/C(=C\c1ccc(Cl)cc1)c1ccc(F)cc1 |  | inactive: 6.11% |
| 63 | O=C(N/N=C/c1ccc(Cl)cc1Cl)c1ccc2nc[nH]c2c1 | inconclusive: 14.7 µM [inhibitor, partial curve, poor fit] |  |
| 67 | CCNC(=S)NNC(=O)c1cc(-c2ccccc2C)nc2ccccc12 | inconclusive: 0.185 µM [inhibitor, full curve, poor fit] |  |
